Data source: PubChem BioAssay AID1671195 (Yale University, 2021)
This is one part, drawn at random, of about 22,000 deposited reagents. Over the whole deposit, about 1,510 (6.9%) were called active. 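Active includes knockdowns raising or lowering LDL uptake; positive z-scores mean more uptake, negative mean less.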 Reagent sequences are not shown.

- Screen: 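Genes whose knockdown alters LDL uptake in liver cancer cells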 (primary screen)
- System: human Huh7 hepatoma cells
- Reagent: siRNA pool against human genes, 18 nM
- Time to read-out: about 2 to 2.5 days of knockdown, then 8 h LDL uptake
- Treatment: DiI-labelled LDL at 30 µg/ml for 8 h, in lipoprotein-deficient serum medium
- Read-out: 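Fluorescent LDL signal imaged in cells, scaled to the plate median, robust z-score for each replicate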
- Scale: robust z-score: higher = more LDL uptake after knockdown
- Call rule: 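a gene counts as active if at least two replicate z-scores exceed ±2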

gene,"robust z-score, replicate 1","robust z-score, replicate 2","robust z-score, replicate 3",Outcome
LOC388489 (retired record),1.62,1.61,1.6,inactive
PRLR,0.66,0.464,0.326,inactive
RAB10,0.0734,0.0852,0.0288,inactive
DTWD2,0.793,0.499,0.11,inactive
CD163,-2.17,-2.27,-2.1,active
USH1C,3.48,1.81,3.08,active
ANKS4B,-0.483,-0.257,-0.26,inactive
LRP10,-0.184,0.133,-0.364,inactive
NRL,0.357,-0.744,-1.38,inactive
DKFZP586K1520 (retired record),0.128,1.2,-0.47,inactive
C11orf58,-2.13,-0.0416,-1.65,inactive
ARHGEF17,0.656,1.99,-0.947,inactive
ELN,-0.772,0.297,-1.17,inactive
LOC284269,1.36,1.51,2.15,inactive
TBCCD1,1.31,-0.572,-0.156,inactive
CYP4V2,-0.141,0.161,0.796,inactive
FAR2P1,-0.985,-0.527,-0.658,inactive
KLHL17,1.44,1.68,1.19,inactive
ZNF431,0.0161,0.355,-0.321,inactive
TMEM59,0.741,2.21,1.07,inactive
DRC1,-0.884,-0.349,-0.261,inactive
NVL,0.0752,-0.103,0.299,inactive
BTD,0.614,0.77,1.39,inactive
CEP70,0.93,0.727,0.992,inactive
CITED2,0.339,0.101,-0.226,inactive
LOC442180 (retired record),-0.781,-0.536,-0.733,inactive
AKIRIN1,-1.32,-1.89,-1.78,inactive
LINC02139,1.74,1.66,1.14,inactive
